Measurements from patent publication US20070248705A1, “Agents for Activating the Transcription Factor Nrf2 and Foods Having Such Function” (KIRIN BEER KABUSHIKI KAISHA, priority 2004, published 2007).
For at least one compound, name, drawing or mass did not settle the structure.

Tested on: quinone reductase (QR) activity in mouse hepatoma Hepa1c1c7 cells
Assay: Induction of quinone reductase (QR) activity
Format: cell-based
Settings: Hepa1c1c7 cells, 0.6, 1.7, 5, and 15 μM, 48 hours
Description: It has been known that quinone reductase (QR) activity is increased by increasing the expression of NAD(P)H:quinone oxidoreductase (NQO1) by Nrf2 activation (Proc Natl Acad Sci USA. 101, 10446-51 (2004)). Accordingly, isohumulones were allowed to act on mouse hepatoma Hepa1c1c7 cells (available from Dainippon Pharmaceutical Co., Ltd.) to examine whether the QR activity was induced.
The QR activity was measured in accordance with the method described in Analytical Biochemistry 169, 328-336 (1988).
A mouse hepatoma cell line Hepa1c1c7 was seeded on a 96-well plate (7-10×10^3 cells/well), 50 μl each of an α-MEM medium (Invitrogen) supplemented with 10% fetal bovine serum (HyClone) and penicillin-streptomycin (100 units/ml and 100 μg/ml, respectively; Sigma) was added, and the plate was incubated at […] in an atmosphere of 5% CO2 overnight. […] Then, the cells in each well were broken using 0.08% digitonin and a 2 mM EDTA solution and absorption at 610 nm was measured by a menadione-formazan system using a microplate reader (Power Wave 200, Bio-Tek Instruments).
The QR inducing activity was calculated as a relative activity setting the activity of cells without addition to be 1 (n=3, mean±standard variation). […]

With CC(C)=CCC1C(=O)C(C(=O)CC(C)C)=C(O)C(O)(CC=C(C)C)C1=O (stereo not shown) [humulone, reference compound] the QR inducing activity was “no clear change”.
